Experimental data: patent US20040258656
For part of these data: A weaker result is weaker than the reference pair of the same experiment. For part of these data: Where a protein sequence is shown, tags need not be part of it. For part of these data: For at least one entry, the source does not settle the construct or the ends of the probe. For part of these data: The direction of at least one scale is not stated here.

Sequences of proteins named here, by UniProt entry; tags and fusion partners are left off. Residues count along the entry.
UniProt P01137, 279-390: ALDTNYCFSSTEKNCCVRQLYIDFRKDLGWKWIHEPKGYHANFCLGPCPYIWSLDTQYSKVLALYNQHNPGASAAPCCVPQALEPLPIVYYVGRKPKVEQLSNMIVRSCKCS
UniProt P61812, 303-414: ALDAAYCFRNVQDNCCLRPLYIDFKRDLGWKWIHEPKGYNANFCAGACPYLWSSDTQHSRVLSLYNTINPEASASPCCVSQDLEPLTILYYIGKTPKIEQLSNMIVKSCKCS

Experiments:
[1] = biological target: TGFβ1 (transforming growth factor beta 1) (Homo sapiens) (UniProt P01137); assay: activity in cells; conditions: 2'-F C and U; 3'-3' dT cap; specificity control; purified recombinant protein; protein details: mature 112 aa form, sequence listed in two parts; variant of 21a-21
[2] = biological target: T1, TGFβ3 (transforming growth factor beta 3) (Homo sapiens) (UniProt P10600); assay: activity in cells; conditions: 2'-F C and U; 3'-3' dT cap; specificity control; purified recombinant protein; protein details: mature 112 aa form, sequence listed in two parts; variant of 21a-21
T1 sequence: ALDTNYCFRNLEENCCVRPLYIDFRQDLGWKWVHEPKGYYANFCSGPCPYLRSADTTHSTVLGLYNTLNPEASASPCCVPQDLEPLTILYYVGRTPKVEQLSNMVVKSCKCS

[3] = biological target: TGFβ2 (transforming growth factor beta 2) (Homo sapiens) (UniProt P61812); assay: filter binding; conditions: 2'-F C and U, RNase H product, purified recombinant protein, protein details: mature 112 aa form, sequence listed in two parts, variant of 21a-21
[4] = biological target: T1, TGFβ3 (transforming growth factor beta 3) (Homo sapiens); assay: filter binding; conditions: 2'-F C and U; specificity control; purified recombinant protein; protein details: mature 112 aa form, sequence listed in two parts
[5] = biological target: TGFβ1 (transforming growth factor beta 1) (Homo sapiens) (UniProt P01137); assay: binding assay; conditions: 3'-3' U, purified recombinant protein, protein details: mature 112 aa form, sequence listed in two parts, variant of CD70 (ChD70)

GGAGGUUAUUACAGAGUCUGUAUAGCUGUACUCCCC [NX22283]
Ki [1]: > 1 µM
Ki [2]: > 1 µM

GGGAGGACGAUGCGGUUCAGGAGGUUAUUACAGAGUCUGUAUAGCUGUACUCCCCA [21a-21Δ3']
binding signal (x Kd of NX22284) ([3]; 3' removal alone eliminates binding (p185), counted as no binding): 100

GGGAGGACGAUGCGGUUCAGGAGGUUAUUACAGAGUCUGUAUAGCUGUACUCCCCAGACGACUCGCCCGA [21a-21]
Kd [4]: > 30 µM

GGGUGCCUUUUGCCUAGGUUAACCUUCUGCCCA [ChD70-m22]
binding result ([5]; 2'-OMe purines at 1-3, 16-18, 21-22 and 33, PEG linker (spacer 18) replacing loop after position 20): binds

GGGUGCCUUUUGCCUAGGUUGUAACCUUCUGCCCA [ChD70-m21]
binding result ([5]; 2'-OMe purines at 1-3, 16-18, 21, 23-24 and 35, PEG linker (spacer 18) replacing loop after position 21): binds more weakly

GGGUGCCUUUUGCCUAGGUUGUGAUUUGUAACCUUCUGCCC [ChD70-m19]
binding result ([5]; 2'-OMe purines at 1-3, 16-18, 21, 23-24, 28 and 30-31, 3' terminal A deleted, no bioactivity): binds more weakly

GGGUGCCUUUUGCCUAGGUUGUGUAACCUUCUGCCCA [ChD70-m20]
binding result ([5]; 2'-OMe purines at 1-3, 16-18, 21, 23, 25-26 and 37, PEG linker (spacer 18) replacing loop after position 22): binds more weakly

GGUUCAGGAGGUUAUUACAGAGUCUGUAUAGCUGUACUCCCCAGACGACUCGCCCGA [21a-21Δ5']
binding signal (x Kd of NX22284) [3]: 0.5
